Source: US6413937B1, “Combinations for use in increasing the potency of a substrate for multidrug resistance related protein” (Dublin City University and Enterprise Ireland, priority 1996, dated 2002)

By UniProt entry, the sequences of proteins in these tests, tags left out. Where a name states a change or a piece, a line headed by the entry shows the natural chain unless it says otherwise.
UniProt P33527: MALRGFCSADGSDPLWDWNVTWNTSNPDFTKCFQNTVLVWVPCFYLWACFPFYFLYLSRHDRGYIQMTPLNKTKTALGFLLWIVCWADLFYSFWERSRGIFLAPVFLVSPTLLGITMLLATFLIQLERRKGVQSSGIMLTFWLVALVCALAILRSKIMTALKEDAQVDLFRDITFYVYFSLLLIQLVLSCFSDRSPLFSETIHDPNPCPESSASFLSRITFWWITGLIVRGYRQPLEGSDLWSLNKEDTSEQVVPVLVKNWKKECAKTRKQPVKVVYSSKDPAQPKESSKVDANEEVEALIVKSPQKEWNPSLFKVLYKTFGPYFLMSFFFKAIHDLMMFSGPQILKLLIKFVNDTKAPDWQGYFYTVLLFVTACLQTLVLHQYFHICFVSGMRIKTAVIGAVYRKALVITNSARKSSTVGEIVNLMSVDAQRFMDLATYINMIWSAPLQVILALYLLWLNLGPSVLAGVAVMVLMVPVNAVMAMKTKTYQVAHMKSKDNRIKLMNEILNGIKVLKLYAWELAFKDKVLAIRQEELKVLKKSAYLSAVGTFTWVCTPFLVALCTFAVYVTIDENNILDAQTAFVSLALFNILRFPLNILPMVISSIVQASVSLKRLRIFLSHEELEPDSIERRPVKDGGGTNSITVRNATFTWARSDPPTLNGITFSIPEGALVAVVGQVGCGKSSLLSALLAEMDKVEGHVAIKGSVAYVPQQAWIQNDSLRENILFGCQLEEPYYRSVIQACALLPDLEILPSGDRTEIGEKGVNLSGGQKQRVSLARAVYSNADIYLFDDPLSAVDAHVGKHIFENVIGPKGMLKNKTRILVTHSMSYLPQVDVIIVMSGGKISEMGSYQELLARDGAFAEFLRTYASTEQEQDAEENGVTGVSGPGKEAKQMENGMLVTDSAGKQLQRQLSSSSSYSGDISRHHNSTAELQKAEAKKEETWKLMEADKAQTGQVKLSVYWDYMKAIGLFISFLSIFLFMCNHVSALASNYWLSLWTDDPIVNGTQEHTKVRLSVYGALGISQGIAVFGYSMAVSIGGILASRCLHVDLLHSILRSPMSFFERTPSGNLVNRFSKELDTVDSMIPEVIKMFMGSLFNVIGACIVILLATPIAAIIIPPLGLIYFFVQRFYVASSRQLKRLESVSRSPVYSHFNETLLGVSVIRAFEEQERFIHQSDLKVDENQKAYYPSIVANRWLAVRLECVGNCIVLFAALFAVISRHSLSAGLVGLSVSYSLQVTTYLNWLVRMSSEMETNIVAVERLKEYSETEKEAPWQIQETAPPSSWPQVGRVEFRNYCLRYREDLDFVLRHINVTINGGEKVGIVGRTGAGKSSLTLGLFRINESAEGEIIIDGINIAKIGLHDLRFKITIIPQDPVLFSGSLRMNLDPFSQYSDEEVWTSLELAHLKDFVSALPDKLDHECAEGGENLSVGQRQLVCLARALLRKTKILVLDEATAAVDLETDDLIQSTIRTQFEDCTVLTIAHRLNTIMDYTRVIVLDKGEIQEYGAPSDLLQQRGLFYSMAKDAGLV

Biological target: T1, MRP pump (Homo sapiens, UniProt P33527)
T1 construct: inside-out plasma membrane vesicles prepared from HL60ADR cells; endogenous in cells; host or cells: HL60ADR cells (plasma membrane vesicles)
Assay: ATP-dependent transport of [3H]LTC4 into inside-out plasma membrane vesicles from HL60ADR cells
Assay type: biochemical
Settings: 2.2 mM
Experimental: To determine if the NSAIDs were acting directly on the MRP pump the uptake of [^3H]LTC4 into inside-out plasma membrane vesicles prepared from HL60ADR cells was examined using a rapid filtration procedure (Ishikawa,T., et al. (1994); J. Biol. Chem. 269 (46); 29085-29093). ATP-dependent transport of [^3H]LTC4 into the membrane vesicles was measured by a rapid filtration method using a Millipore sampling manifold. The membrane vesicles were thawed at 37° C. before use and kept on ice. The reaction components consisted of 0.25 M sucrose/10 mM Tris.HCl pH 7.4/1 mM ATP/10 mM MgCl2/10 mM creatine phosphate/ 110 μg/ml creatine kinase and 10 nM [^3H]LTC4, with 50 μg of the inside-out vesicle preparation, in a final volume of 110 μl. This suspension was incubated at 37° C., with gentle mixing, and aliquots, 20 μl, were taken at the indicated points. Those aliquots were diluted in 1 ml of ice-cold incubation buffer before being applied to 0.22 μm Millipore GSWP nitrocellulose filters, pre-soaked in ice-cold incubation buffer, under suction. The filters were subsequently washed with 3 ml ice-cold incubation buffer, and absorbed radioactivity was measured using a scintillation counter (Beckman). In control experiments ATP was replaced with 5μ-AMP to determine the ATP-dependent transport.

inhibition at 2200 µM: 15.5%
Structure (SMILES): COc1ccc2cc([C@H](C)C(=O)O)ccc2c1 [Naproxen]
